Measurements reported in PubChem BioAssay AID1159578 (Peter MacCallum Cancer Centre, 2015)
The deposit covers about 18,000 reagents; this is a part drawn at random. About 1,030 of them (5.7%) were called active. 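Inactive calls also include pools with fewer than 3300 nuclei, whose migration was not assessed.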 Raw values are not corrected between plates. A number with no mark means an inactive call.

Aim: 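Genome-wide hunt for genes controlling movement of lymphatic endothelial cells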 (primary screen)
Cells: human lymphatic endothelial cells
Reagent: siRNA pool against human genes, 40 nM
Duration: 48 h after transfection
Measurement: 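Cells stained with dye and imaged after a scratch; covered wound area and nuclei counted, duplicates averaged, migration set against mock wells and turned into a robust z-score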
Scale: migration robust z-score: higher = faster migration into the scratch; migration relative to mock: higher = more scratch area covered than mock; nuclei per well: higher = more cells in the well
Active means: 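Pools averaging fewer than 3300 nuclei are never called; remaining pools count as changed when migration robust z lies outside -2 to 2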
Calls: active = migration changed; inactive = no migration change, or too few cells

Gene	migration robust z-score	migration class with cell-count check	migration relative to mock	nuclei per well, duplicate mean
PLPPR1 (phospholipid phosphatase related 1)	-0.6	migration z between -2 and 2; enough cells	0.73	5216
INS (insulin)	-0.1	migration z between -2 and 2; enough cells	0.86	5552
CDV3 (CDV3 homolog)	-0.28	migration z between -2 and 2; enough cells	0.81	6473
ASB8 (ankyrin repeat and SOCS box containing 8)	-0.34	migration z between -2 and 2; enough cells	0.74	5436
GPR149 (G protein-coupled receptor 149)	-0.42	migration z between -2 and 2; enough cells	0.72	6906
PANK2 (pantothenate kinase 2)	-1.22	migration z between -2 and 2; enough cells	0.57	3589
SMAD4 (SMAD family member 4)	0.06	migration z between -2 and 2; enough cells	0.82	5995
LPA (lipoprotein(a))	-0.62	migration z between -2 and 2; enough cells	0.68	4645
NTS (neurotensin)	0.64	migration z between -2 and 2; enough cells	1.05	7401
LMCD1 (LIM and cysteine rich domains 1)	-0.92	migration z between -2 and 2; enough cells	0.64	4682
NME5 (NME/NM23 family member 5)	-0.26	migration z between -2 and 2; enough cells	0.76	5964
EFCC1 (EF-hand and coiled-coil domain containing 1)	1.4	migration z between -2 and 2; enough cells	1.25	4935
SPTLC2 (serine palmitoyltransferase long chain base subunit 2)	-1.27	migration z between -2 and 2; enough cells	0.56	4426
EYA3 (EYA transcriptional coactivator and phosphatase 3)	0.73	migration z between -2 and 2; enough cells	0.94	5646
CD79A (CD79a molecule)	-0.75	migration z between -2 and 2; enough cells	0.66	3540
SLC35D3	-0.36	migration z between -2 and 2; enough cells	0.8	5742
CCDC25 (coiled-coil domain containing 25)	-1.35	migration z between -2 and 2; enough cells	0.54	5848
HMGN4 (high mobility group nucleosomal binding domain 4)	-2.06 (active)	migration z below -2; enough cells	0.35	3300
AKAP11 (A-kinase anchoring protein 11)	-2.75 (active)	migration z below -2; enough cells	0.28	3608
ATRN (attractin)	0.53	migration z between -2 and 2; enough cells	1.03	6646
MDH1B (malate dehydrogenase 1B)	-2.08	under 3300 nuclei; migration not judged	0.4	2989
HES5 (hes family bHLH transcription factor 5)	-0.58	migration z between -2 and 2; enough cells	0.74	4986
IL17RB (interleukin 17 receptor B)	-1.58	migration z between -2 and 2; enough cells	0.5	4426
LEF1 (lymphoid enhancer binding factor 1)	-0.24	migration z between -2 and 2; enough cells	0.76	5777
ZNF134 (zinc finger protein 134)	-1.62	migration z between -2 and 2; enough cells	0.46	5666
NDE1 (nudE neurodevelopment protein 1)	-1.22	migration z between -2 and 2; enough cells	0.57	4862
GUCA1A (guanylate cyclase activator 1A)	-0.73	migration z between -2 and 2; enough cells	0.66	4633
CDK7 (cyclin dependent kinase 7)	-2.54 (active)	migration z below -2; enough cells	0.32	3744
KCNA6 (potassium voltage-gated channel subfamily A member 6)	0.2	migration z between -2 and 2; enough cells	0.84	5060
MKS1 (MKS transition zone complex subunit 1)	-1.03	migration z between -2 and 2; enough cells	0.62	6320
KMT2C (lysine methyltransferase 2C)	-1.03	migration z between -2 and 2; enough cells	0.6	5602
ZNF470 (zinc finger protein 470)	0.28	migration z between -2 and 2; enough cells	0.96	5277
AWAT1 (acyl-CoA wax alcohol acyltransferase 1)	-0.28	migration z between -2 and 2; enough cells	0.82	5316
ZNF580 (zinc finger protein 580)	-1.17	migration z between -2 and 2; enough cells	0.58	4526
ST14 (ST14 transmembrane serine protease matriptase)	-1.84	migration z between -2 and 2; enough cells	0.45	5286
STON2 (stonin 2)	-4.68	under 3300 nuclei; migration not judged	-0.36	1330
C2orf66 (chromosome 2 open reading frame 66)	-0.84	migration z between -2 and 2; enough cells	0.66	4263
TEF (TEF transcription factor, PAR bZIP family member)	-2.25	under 3300 nuclei; migration not judged	0.37	3038
CEP72 (centrosomal protein 72)	-0.86	migration z between -2 and 2; enough cells	0.66	4842
CSPG4 (chondroitin sulfate proteoglycan 4)	0.47	migration z between -2 and 2; enough cells	1.01	7032
SPATA17 (spermatogenesis associated 17)	-2.77	under 3300 nuclei; migration not judged	0.15	2769
PKP3 (plakophilin 3)	-1.1	migration z between -2 and 2; enough cells	0.6	4719
PCDHA12 (protocadherin alpha 12)	0.93	migration z between -2 and 2; enough cells	1.12	5370
C10orf67 (chromosome 10 open reading frame 67)	1	migration z between -2 and 2; enough cells	1.15	5800
H3C6 (H3 clustered histone 6)	0.26	migration z between -2 and 2; enough cells	0.95	5614
TSLIG3C (tRNA splicing ligase complex subunit 3C)	-0.38	migration z between -2 and 2; enough cells	0.78	5034
THNSL1 (threonine synthase like 1)	0.08	migration z between -2 and 2; enough cells	0.82	5714
RBBP7 (RB binding protein 7, chromatin remodeling factor)	-0.24	migration z between -2 and 2; enough cells	0.76	5432
LRP6 (LDL receptor related protein 6)	0	migration z between -2 and 2; enough cells	0.8	4984
SMARCE1 (SWI/SNF related BAF chromatin remodeling complex subunit E1)	0.42	migration z between -2 and 2; enough cells	0.88	4003
CAPN13 (calpain 13)	-1.66	migration z between -2 and 2; enough cells	0.48	5128
ANAPC7 (anaphase promoting complex subunit 7)	2.01 (active)	migration z above 2; enough cells	1.41	5476
ZNF707 (zinc finger protein 707)	0.54	migration z between -2 and 2; enough cells	1.02	6672
MEF2A (myocyte enhancer factor 2A)	0.78	migration z between -2 and 2; enough cells	0.96	6926
RBP7 (retinol binding protein 7)	0.46	migration z between -2 and 2; enough cells	0.9	5596
SYN3 (synapsin III)	-0.36	migration z between -2 and 2; enough cells	0.8	5580
SEC14L3 (SEC14 like lipid binding 3)	-0.18	migration z between -2 and 2; enough cells	0.77	5400

Already shown: an excerpt of the list.
Gene	migration robust z-score	migration class with cell-count check	migration relative to mock	nuclei per well, duplicate mean
CCDC25 (coiled-coil domain containing 25)	-1.35	migration z between -2 and 2; enough cells	0.54	5848
HMGN4 (high mobility group nucleosomal binding domain 4)	-2.06 (active)	migration z below -2; enough cells	0.35	3300
AKAP11 (A-kinase anchoring protein 11)	-2.75 (active)	migration z below -2; enough cells	0.28	3608
ATRN (attractin)	0.53	migration z between -2 and 2; enough cells	1.03	6646
MDH1B (malate dehydrogenase 1B)	-2.08	under 3300 nuclei; migration not judged	0.4	2989
HES5 (hes family bHLH transcription factor 5)	-0.58	migration z between -2 and 2; enough cells	0.74	4986
IL17RB (interleukin 17 receptor B)	-1.58	migration z between -2 and 2; enough cells	0.5	4426
